The record followed here is article PMC10394018.

Results are given in words; binding and its absence hold for the method and conditions named. Binding seen in cells or lysates may run through a third protein. Some results given as binding are weak or reduced against the parent protein; the word gives no strength. For some assays here: Sequences can lack the tags named with a protein.

The target of one experiment is Flag-tagged Bcl6 (UniProt P41183). In words: co-IP; HEK293T cells co-transfected with Flag-tagged Bcl6 and HA-tagged Trim37 (full length or mutants), 24 h; RIPA lysis buffer (50 mM Tris base, 150 mM NaCl, 1% NP-40, 1 mM EDTA, 0.25% sodium deoxycholate, 0.1% SDS); anti-Flag agarose gel overnight at 4 °C; immunoblot with anti-HA and anti-Flag. A general note: Immunoblotting shows a protein as a band on a membrane.

The target of experiment [1] is Bcl6 with Twin-Strep-Tag at the C-terminus (Bcl6^TST knock-in mice) (mouse (endogenous in CD4+ T cells of knock-in mice)) (UniProt P41183). In words: pull-down; WT and Bcl6^TST CD4+ T cells cultured under TFH-like conditions, stimulated with anti-CD3 and anti-ICOS for 4 h; affinity enrichment of the Twin-Strep-Tag with Strep-tactin; immunoblot with anti-Bcl6, anti-Trim37 and anti-actin.

B1: HA-tagged full-length Trim37 (protein, UniProt Q6PCX9 1-961)
chain: MDEQSVESIAEVFRCFICMEKLRDARLCPHCSKLCCFSCIRRWLTEQRAQCPHCRAPLQLRELVNCRWAEEVTQQLDTLQLCSLTKHEENEKDKCENHHEKLSVFCWTCKKCICHQCALWGGMHGGHTFKPLAEIYEQHVTKVNEEVAKLRRRLMELISLVQEVERNVEAVRNAKDERVREIRNAVEMMIARLDTQLKNKLITLMGQKTSLTQETELLESLLQEVEHQLRSCSKSELISKSSEILMMFQQVHRKPMASFVTTPVPPDFTSELVPSYDSATFVLENFSTLRQRADPVYSPPLQVSGLCWRLKVYPDGNGVVRGYYLSVFLELSAGLPETSKYEYRVEMVHQSCNDPTKNIIREFASDFEVGECWGYNRFFRLDLLANEGYLNRQNDTVILRFQVRSPTFFQKCRDQHWYITQLEAAQTGYIQQINNLKERLTIELSRTQKSRDLSPPDNHLSPQNDDSPETRTKKAGSCSDMLLEGGPTCASVRETKEDEDEEEKIQNEDYHHELSDGDLDLDLVGEDEVNHLDGSSSSASSTATSNTEENDIDEETMSGENDVEYNSMELEEGELMEDAAAAGPPGSSHSYVGASSRMSRRTHLCSAATSSLLDIDPLILIHLLDLKDRSSMENLWGLQPRPSASLLQPTASYSRKDKDQRKQQAMWRVPSDLKMLKRLKTQMAEVRCMKTDVKTTLSDIKGSSVASTDMQTNLFCADQAALTTCGPENSGRLQDLGMELLAKSSVAGCYIRNPTNKKNSPKSARAIAGSLSLRRAVDSGENSRSKGDCQVLAEGSSGSSQSGSRHSSPRALTHGIIGDLLPKSEDRQCKALDSDAVVVAVFNGLPTVEKRRKMVTLGTNAKGGRLEGMQMADLESHSEAGEVQPTLPEGASAAPEEGMSSDSDIECDTENEEQEEHTSMGAFNDPFLAQPPDEDSHSSFPDGEQIDPENLHFNPDEGGGR
In the case of B1, the binding entry with Flag-tagged Bcl6 is “binds”.

B2: Trim37 (endogenous, mouse CD4+ T cells) (protein, UniProt Q6PCX9 1-961)
chain: MDEQSVESIAEVFRCFICMEKLRDARLCPHCSKLCCFSCIRRWLTEQRAQCPHCRAPLQLRELVNCRWAEEVTQQLDTLQLCSLTKHEENEKDKCENHHEKLSVFCWTCKKCICHQCALWGGMHGGHTFKPLAEIYEQHVTKVNEEVAKLRRRLMELISLVQEVERNVEAVRNAKDERVREIRNAVEMMIARLDTQLKNKLITLMGQKTSLTQETELLESLLQEVEHQLRSCSKSELISKSSEILMMFQQVHRKPMASFVTTPVPPDFTSELVPSYDSATFVLENFSTLRQRADPVYSPPLQVSGLCWRLKVYPDGNGVVRGYYLSVFLELSAGLPETSKYEYRVEMVHQSCNDPTKNIIREFASDFEVGECWGYNRFFRLDLLANEGYLNRQNDTVILRFQVRSPTFFQKCRDQHWYITQLEAAQTGYIQQINNLKERLTIELSRTQKSRDLSPPDNHLSPQNDDSPETRTKKAGSCSDMLLEGGPTCASVRETKEDEDEEEKIQNEDYHHELSDGDLDLDLVGEDEVNHLDGSSSSASSTATSNTEENDIDEETMSGENDVEYNSMELEEGELMEDAAAAGPPGSSHSYVGASSRMSRRTHLCSAATSSLLDIDPLILIHLLDLKDRSSMENLWGLQPRPSASLLQPTASYSRKDKDQRKQQAMWRVPSDLKMLKRLKTQMAEVRCMKTDVKTTLSDIKGSSVASTDMQTNLFCADQAALTTCGPENSGRLQDLGMELLAKSSVAGCYIRNPTNKKNSPKSARAIAGSLSLRRAVDSGENSRSKGDCQVLAEGSSGSSQSGSRHSSPRALTHGIIGDLLPKSEDRQCKALDSDAVVVAVFNGLPTVEKRRKMVTLGTNAKGGRLEGMQMADLESHSEAGEVQPTLPEGASAAPEEGMSSDSDIECDTENEEQEEHTSMGAFNDPFLAQPPDEDSHSSFPDGEQIDPENLHFNPDEGGGR
Regarding B2, in experiment [1], the binding entry is “binds”.
